Data taken from PubChem BioAssay AID190 (DTP/NCI, 2004).
The list shows only some results of the screen, not a fair sample: it is rich in T/C values a quarter to a half above the control, in often repeated tests (any T/C) and in doses without a T/C. Other doses and runs of a compound stand elsewhere. T/C gives the treated animals as a percentage of the vehicle group. Some doses have a count of surviving animals in place of a T/C: the source files T/C as zero there, which appears to mark a toxic dose or a test without result, not a measured value. Some survivor counts are full or nearly so, which does not show that the dose was tolerated: the source hardly ever lists a survival T/C far under the control, and the zero likely stands for such cases as well. Counts of survivors are from the toxicity check (mostly the fifth day) where no day follows; animals may have died later. Schedules are NCI's codes, taken here to give the interval after Q, in days (D) or hours (H), and the number of doses after X. Some entries hold several experiments; their values stand side by side, smallest first. For survival time, the PubChem record calls one and a half times the control and up active, and a quarter to a half above the control has no call in these data; cut-offs in other NCI protocols can differ. Some T/C values carry the count of animals alive at the toxicity check (mostly the fifth day); where none is given, no animal had died by that day.

System: AKR/Lw mice, AKR lymphoma ip, median survival T/C
Test: NCI In Vivo Anticancer Drug Screen. Data for tumor model Lymphoma AKR (Transplanted) (intraperitoneal) in AKR/Lw mice
Settings: T/C endpoint: median survival time, higher T/C = longer survival
Procedure: The antitumor activity of compounds was measured in mice bearing transplantable tumors. Survival or tumor size were measured and the results are expressed as the measurement made in the treated group (T) divided by the measurement made in the vehicle treated control group (C). The tumor model used in this assay is Lymphoma AKR (Transplanted) (intraperitoneal) in AKR/Lw mice

[1] = dose: 0.25 mg/kg/injection, schedule: Q01DX009 (ip), vehicle: saline
[2] = dose: 0.5 mg/kg/injection, schedule: Q01DX009 (ip), vehicle: saline
[3] = dose: 2.0 mg/kg/injection, schedule: Q01DX009 (ip), vehicle: saline
[4] = dose: 3.0 mg/kg/injection, schedule: Q04DX003 (ip), vehicle: saline
[5] = dose: 4.0 mg/kg/injection, schedule: Q01DX009 (ip), vehicle: saline
[6] = dose: 7.5 mg/kg/injection, schedule: Q04DX003 (ip), vehicle: saline
[7] = dose: 8.0 mg/kg/injection, schedule: Q04DX003 (ip), vehicle: saline
[8] = dose: 12.5 mg/kg/injection, schedule: Q01DX001 (ip), vehicle: saline
[9] = dose: 20.0 mg/kg/injection, schedule: Q01DX001 (ip), vehicle: saline
[10] = dose: 25.0 mg/kg/injection, schedule: Q01DX001 (ip), vehicle: saline
[11] = dose: 400.0 mg/kg/injection, schedule: Q01DX001 (ip), vehicle: saline
[12] = dose: 100.0 mg/kg/injection, schedule: Q01DX001 (ip), vehicle: Klucel (hydroxypropylcellulose) (HPC)
[13] = dose: 400.0 mg/kg/injection, schedule: Q01DX001 (ip), vehicle: Klucel (hydroxypropylcellulose) (HPC)
[14] = dose: 200.0 mg/kg/injection, schedule: Q01DX001 (ip), vehicle: Klucel (hydroxypropylcellulose) (HPC)

S=P(N1CC1)(N1CC1)N1CC1
T/C (dose: 0.02 mg/kg/injection, schedule: Q01DX009 (ip), vehicle: saline): 133 % of control
T/C (dose: 0.05 mg/kg/injection, schedule: Q01DX009 (ip), vehicle: saline): 125 % of control [7 of 10 alive]
survivor count (dose: 0.12 mg/kg/injection, schedule: Q01DX009 (ip), vehicle: saline): 10 of 10
survivor count [1]: 10 of 10
survivor count [2]: 10 of 10
survivor count (dose: 0.75 mg/kg/injection, schedule: Q01DX009 (ip), vehicle: saline): 10 of 10
survivor count (dose: 1.5 mg/kg/injection, schedule: Q01DX009 (ip), vehicle: saline): 9 of 10
T/C [3]: 126 % of control
survivor count [3]: 9 of 10
T/C (dose: 2.0 mg/kg/injection, schedule: Q04DX003 (ip), vehicle: saline): 94 [7 of 10 alive], 100, 107, 116, 117 % of control
survivor count (dose: 3.0 mg/kg/injection, schedule: Q01DX009 (ip), vehicle: saline): 10 of 10
T/C [4]: 129 % of control
survivor count [4]: 10 of 10
T/C [5]: 132 % of control
survivor count [5]: 7 of 10
T/C (dose: 4.0 mg/kg/injection, schedule: Q04DX003 (ip), vehicle: saline): 95, 116, 126, 146, 147 % of control [9 of 10 alive]
survivor count (dose: 5.0 mg/kg/injection, schedule: Q01DX009 (ip), vehicle: saline): 10 of 10
T/C (dose: 5.0 mg/kg/injection, schedule: Q04DX003 (ip), vehicle: saline): 106, 118, 136, 140, 144, 155 % of control
T/C (dose: 6.2 mg/kg/injection, schedule: Q01DX001 (ip), vehicle: saline): 139 % of control [9 of 10 alive]
T/C (dose: 6.25 mg/kg/injection, schedule: Q01DX001 (ip), vehicle: saline): 126 % of control
T/C [6]: 129 % of control
survivor count [6]: 10 of 10
T/C [7]: 88, 100 [9 of 10 alive], 188 % of control
survivor count [7]: 10 of 10
T/C (dose: 10.0 mg/kg/injection, schedule: Q01DX001 (ip), vehicle: saline): 127 and 135 % of control
survivor count (dose: 10.0 mg/kg/injection, schedule: Q01DX009 (ip), vehicle: saline): 8 of 10
survivor count (dose: 10.0 mg/kg/injection, schedule: Q04DX003 (ip), vehicle: saline): 9 of 10 and 10 of 10
T/C [8]: 121, 122, 133, 133 [9 of 10 alive], 142 % of control [9 of 10 alive]
survivor count [8]: 9 of 10
survivor count (dose: 15.0 mg/kg/injection, schedule: Q01DX001 (ip), vehicle: saline): 7 of 10
survivor count (dose: 16.0 mg/kg/injection, schedule: Q04DX003 (ip), vehicle: saline): 10 of 10
T/C [9]: 102 [9 of 10 alive] and 125 % of control [9 of 10 alive]
survivor count [9]: 4 of 10 and 5 of 10
survivor count (dose: 20.0 mg/kg/injection, schedule: Q01DX009 (ip), vehicle: saline): 4 of 10
survivor count (dose: 20.0 mg/kg/injection, schedule: Q04DX003 (ip), vehicle: saline): 8 of 10
survivor count (dose: 25.0 mg/kg/injection, schedule: Q01DX001 (ip), vehicle: saline with Tween-80): 10 of 10
T/C [10]: 111 [8 of 10 alive], 131, 139 % of control [9 of 10 alive]
survivor count [10]: 1 of 10, 2 of 10, 3 of 10, 4 of 10, 6 of 10
survivor count (dose: 30.0 mg/kg/injection, schedule: Q01DX009 (ip), vehicle: saline): 0 of 10
survivor count (dose: 32.0 mg/kg/injection, schedule: Q04DX003 (ip), vehicle: saline): 10 of 10
survivor count (dose: 50.0 mg/kg/injection, schedule: Q01DX001 (ip), vehicle: saline with Tween-80): 10 of 10
survivor count (dose: 50.0 mg/kg/injection, schedule: Q01DX001 (ip), vehicle: saline): 0 of 10, 1 of 10, 2 of 10, 6 of 10
survivor count (dose: 60.0 mg/kg/injection, schedule: Q01DX009 (ip), vehicle: saline): 0 of 10
survivor count (dose: 100.0 mg/kg/injection, schedule: Q01DX001 (ip), vehicle: saline with Tween-80): 10 of 10
survivor count (dose: 100.0 mg/kg/injection, schedule: Q01DX001 (ip), vehicle: saline): 0 of 10
survivor count (dose: 50.0 micrograms/kg/injection, schedule: Q01DX009 (ip), vehicle: saline): 10 of 10

OCC#CC#CCO
survivor count [11]: 0 of 10

COc1cc([C@@H]2c3cc4c(c(O)c3C[C@H]3COC(=O)[C@@H]32)OCO4)cc(OC)c1O
survivor count (dose: 0.5 mg/kg/injection, schedule: Q01DX009 (ip), vehicle: Klucel (hydroxypropylcellulose) (HPC)): 10 of 10
survivor count (dose: 1.0 mg/kg/injection, schedule: Q01DX009 (ip), vehicle: Klucel (hydroxypropylcellulose) (HPC)): 10 of 10

CCCCCCCCCCCCCCCC(=O)N(CCCN)CCCCCCCCCN(CCCN)C(=O)CCCCCCCCCCCCCCC
survivor count (dose: 25.0 mg/kg/injection, schedule: Q04DX003 (ip), vehicle: other): 10 of 10
survivor count (dose: 200.0 mg/kg/injection, schedule: Q01DX001 (ip), vehicle: saline): 4 of 10
survivor count [11]: 1 of 10

Cc1ccc(N=C(c2ccc([N+](=O)[O-])cc2)c2ccc([N+](=O)[O-])cc2)cc1
survivor count [12]: 10 of 10
survivor count [13]: 10 of 10

O=C(O)c1ccc(SSc2ccc(C(=O)O)cn2)nc1
T/C (dose: 100.0 mg/kg/injection, schedule: Q04DX003 (ip), vehicle: Klucel (hydroxypropylcellulose) (HPC)): 140 % of control [8 of 10 alive]
survivor count (dose: 200.0 mg/kg/injection, schedule: Q04DX003 (ip), vehicle: Klucel (hydroxypropylcellulose) (HPC)): 10 of 10
survivor count (dose: 400.0 mg/kg/injection, schedule: Q04DX003 (ip), vehicle: Klucel (hydroxypropylcellulose) (HPC)): 10 of 10

CCOc1ccc(Br)cc1/C=N\N=C\c1cc(Br)ccc1OCC
survivor count [12]: 10 of 10
survivor count [14]: 10 of 10
survivor count [13]: 10 of 10

CO[C@H](C(=O)[C@@H](O)[C@@H](C)O)[C@@H]1Cc2cc3cc(OC4CC(OC5CC(O)C(O)C(C)O5)C(O)C(C)O4)c(C)c(O)c3c(O)c2C(=O)[C@H]1OC1CC(OC2CC(OC3CC(C)(O)C(O)C(C)O3)C(O)C(C)O2)C(O)C(C)O1 (stereo not given in full)
T/C [1]: 132 % of control
T/C [2]: 142 % of control
T/C (dose: 0.5 mg/kg/injection, schedule: Q01DX009 (ip), vehicle: water): 130 % of control
survivor count (dose: 1.0 mg/kg/injection, schedule: Q01DX009 (ip), vehicle: saline): 2 of 10
survivor count (dose: 1.0 mg/kg/injection, schedule: Q01DX009 (ip), vehicle: water): 2 of 10 and 10 of 10
survivor count (dose: 2.0 mg/kg/injection, schedule: Q01DX009 (ip), vehicle: water): 0 of 10 and 10 of 10

CC(Br)C1(c2cccc([N+](=O)[O-])c2)OCCO1 (stereo not given)
survivor count [12]: 7 of 10
survivor count [14]: 6 of 10
survivor count [13]: 1 of 10

Nc1ccc(OCc2ccc(S(=O)(=O)F)c(Cl)c2)c(Cl)c1
survivor count (dose: 75.0 mg/kg/injection, schedule: Q01DX009 (ip), vehicle: Klucel (hydroxypropylcellulose) (HPC)): 10 of 10
survivor count (dose: 300.0 mg/kg/injection, schedule: Q01DX009 (ip), vehicle: Klucel (hydroxypropylcellulose) (HPC)): 8 of 10
survivor count [13]: 9 of 10

COc1ccc(N2C(=O)CC(Sc3ccccc3N)C2=O)cc1 (stereo not given)
survivor count [12]: 10 of 10
survivor count [14]: 10 of 10

CC(C)c1c[nH]c(=O)[nH]c1=O
survivor count [12]: 9 of 10
